{"source": "paper PMC4106346", "about": "“The Oligomeric States of the Purified Sigma-1 Receptor Are Stabilized by Ligands” (The Journal of Biological Chemistry, 2014)", "binders": {"B1": {"name": "TM2 domain of S1R in the TOXCAT construct (between MBP and ToxR) (domain or fragment)", "chain": "WVFVNAGGWMGAMCLLHASL"}, "B2": {"name": "TM2 domain of S1R with G91I in the TOXCAT construct (domain or fragment, UniProt Q60492 81-100)", "chain": "WVFVNAGGWMIAMCLLHASL"}, "B3": {"name": "TM2 domain of S1R with the double mutation G87L/G88L in the TOXCAT construct (domain or fragment, UniProt Q60492 81-100)", "chain": "WVFVNALLWMGAMCLLHASL"}}, "experiment_in_all_cases": "TOXCAT (ToxR-driven CAT reporter of transmembrane self-association); TM domain between MBP and ToxR in the membrane of E. coli MM39; CAT activity of lysates as percent of glycophorin A", "key": {"[1]": {"target": "TM2 domain of S1R in the TOXCAT construct (between MBP and ToxR) (guinea pig)"}, "[2]": {"target": "TM2 domain of S1R with G91I in the TOXCAT construct (guinea pig) (UniProt Q60492)"}, "[3]": {"target": "TM2 domain of S1R with the double mutation G87L/G88L in the TOXCAT construct (guinea pig) (UniProt Q60492)"}}, "note": "Results are given in words; binding and its absence hold for the method and conditions named. Some binding calls cover weakened binding; strength is not graded here. For part of these data: Tags and fused reporters may be left off the sequences shown.", "data": [{"binder": "B1", "values": [{"measurement": "binding", "setting": "[1]", "value": "binds"}]}, {"binder": "B2", "values": [{"measurement": "binding", "setting": "[2]", "value": "no binding"}]}, {"binder": "B3", "values": [{"measurement": "binding", "setting": "[3]", "value": "no binding"}]}]}
